Experimental data taken from paper PMC10558778.
No constants are given. Whether binding was seen depends on the method and setting. Binding seen in cells or lysates may run through a third protein. Some results given as binding are weak or reduced against the parent protein; the word gives no strength.

Amino acid sequences for entries named in this document (tags omitted).
UniProt Q9UKV8: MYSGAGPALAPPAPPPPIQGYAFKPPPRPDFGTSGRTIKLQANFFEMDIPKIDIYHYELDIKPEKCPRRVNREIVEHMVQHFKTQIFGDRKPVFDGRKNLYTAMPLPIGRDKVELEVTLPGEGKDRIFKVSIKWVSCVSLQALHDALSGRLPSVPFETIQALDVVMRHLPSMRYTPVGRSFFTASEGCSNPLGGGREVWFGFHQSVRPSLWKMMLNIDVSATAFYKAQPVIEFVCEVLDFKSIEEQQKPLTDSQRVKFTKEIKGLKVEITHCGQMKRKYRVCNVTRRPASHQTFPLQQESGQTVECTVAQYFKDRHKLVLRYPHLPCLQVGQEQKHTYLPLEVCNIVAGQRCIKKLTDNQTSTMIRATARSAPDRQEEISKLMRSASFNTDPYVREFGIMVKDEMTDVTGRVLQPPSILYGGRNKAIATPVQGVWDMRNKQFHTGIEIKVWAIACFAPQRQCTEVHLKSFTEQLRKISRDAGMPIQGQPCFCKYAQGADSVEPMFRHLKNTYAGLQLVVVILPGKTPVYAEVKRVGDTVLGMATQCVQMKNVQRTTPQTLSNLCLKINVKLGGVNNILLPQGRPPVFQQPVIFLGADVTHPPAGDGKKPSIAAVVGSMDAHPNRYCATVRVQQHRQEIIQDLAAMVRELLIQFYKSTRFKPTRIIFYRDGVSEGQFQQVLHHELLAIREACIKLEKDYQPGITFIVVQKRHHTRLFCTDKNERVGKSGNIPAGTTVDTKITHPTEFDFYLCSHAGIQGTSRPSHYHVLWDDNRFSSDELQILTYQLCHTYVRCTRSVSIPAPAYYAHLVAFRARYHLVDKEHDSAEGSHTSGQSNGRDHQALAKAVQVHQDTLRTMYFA

Assays:
Experiment in all cases: co-IP; Ago2, Drosha or Dgcr8 immunoprecipitated from FL and ΔN cells (SBB buffer: 1% Triton X-100, 150 mM NaCl, 50 mM Tris-Cl pH 7.5, 1 mM EDTA; 4°C), immunoblot with anti-Drosha, anti-Dgcr8, anti-Ago2 or anti-Ddx5; non-specific IgG as control
[1] = molecular target: T1, DiGeorge syndrome critical region 8 (Dgcr8) (human (endogenous in HEK293T)) (UniProt Q8WYQ5)
T1 sequence: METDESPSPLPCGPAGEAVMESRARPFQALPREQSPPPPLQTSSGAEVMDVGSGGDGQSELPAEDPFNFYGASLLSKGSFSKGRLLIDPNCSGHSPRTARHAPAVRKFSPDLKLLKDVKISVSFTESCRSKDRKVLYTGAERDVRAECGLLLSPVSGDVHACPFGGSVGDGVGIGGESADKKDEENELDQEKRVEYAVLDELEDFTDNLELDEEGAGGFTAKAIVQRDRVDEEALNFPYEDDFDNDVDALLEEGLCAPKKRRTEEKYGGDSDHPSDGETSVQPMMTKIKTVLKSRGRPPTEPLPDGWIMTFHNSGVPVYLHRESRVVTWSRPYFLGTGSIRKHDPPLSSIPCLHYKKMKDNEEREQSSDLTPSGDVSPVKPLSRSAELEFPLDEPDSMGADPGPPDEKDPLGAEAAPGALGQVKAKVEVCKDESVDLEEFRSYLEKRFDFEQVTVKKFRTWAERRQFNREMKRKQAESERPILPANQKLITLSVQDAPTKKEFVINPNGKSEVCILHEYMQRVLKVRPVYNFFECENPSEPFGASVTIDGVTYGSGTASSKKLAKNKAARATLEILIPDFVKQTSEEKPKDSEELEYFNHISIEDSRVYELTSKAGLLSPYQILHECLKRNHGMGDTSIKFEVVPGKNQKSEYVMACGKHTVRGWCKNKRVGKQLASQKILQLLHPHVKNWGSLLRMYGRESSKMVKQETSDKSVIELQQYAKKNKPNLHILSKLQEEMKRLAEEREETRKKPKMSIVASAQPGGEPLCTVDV

[2] = molecular target: T2, full length Drosha (FL; aa 1-1374) (human) (UniProt Q9NRR4)
T2 sequence: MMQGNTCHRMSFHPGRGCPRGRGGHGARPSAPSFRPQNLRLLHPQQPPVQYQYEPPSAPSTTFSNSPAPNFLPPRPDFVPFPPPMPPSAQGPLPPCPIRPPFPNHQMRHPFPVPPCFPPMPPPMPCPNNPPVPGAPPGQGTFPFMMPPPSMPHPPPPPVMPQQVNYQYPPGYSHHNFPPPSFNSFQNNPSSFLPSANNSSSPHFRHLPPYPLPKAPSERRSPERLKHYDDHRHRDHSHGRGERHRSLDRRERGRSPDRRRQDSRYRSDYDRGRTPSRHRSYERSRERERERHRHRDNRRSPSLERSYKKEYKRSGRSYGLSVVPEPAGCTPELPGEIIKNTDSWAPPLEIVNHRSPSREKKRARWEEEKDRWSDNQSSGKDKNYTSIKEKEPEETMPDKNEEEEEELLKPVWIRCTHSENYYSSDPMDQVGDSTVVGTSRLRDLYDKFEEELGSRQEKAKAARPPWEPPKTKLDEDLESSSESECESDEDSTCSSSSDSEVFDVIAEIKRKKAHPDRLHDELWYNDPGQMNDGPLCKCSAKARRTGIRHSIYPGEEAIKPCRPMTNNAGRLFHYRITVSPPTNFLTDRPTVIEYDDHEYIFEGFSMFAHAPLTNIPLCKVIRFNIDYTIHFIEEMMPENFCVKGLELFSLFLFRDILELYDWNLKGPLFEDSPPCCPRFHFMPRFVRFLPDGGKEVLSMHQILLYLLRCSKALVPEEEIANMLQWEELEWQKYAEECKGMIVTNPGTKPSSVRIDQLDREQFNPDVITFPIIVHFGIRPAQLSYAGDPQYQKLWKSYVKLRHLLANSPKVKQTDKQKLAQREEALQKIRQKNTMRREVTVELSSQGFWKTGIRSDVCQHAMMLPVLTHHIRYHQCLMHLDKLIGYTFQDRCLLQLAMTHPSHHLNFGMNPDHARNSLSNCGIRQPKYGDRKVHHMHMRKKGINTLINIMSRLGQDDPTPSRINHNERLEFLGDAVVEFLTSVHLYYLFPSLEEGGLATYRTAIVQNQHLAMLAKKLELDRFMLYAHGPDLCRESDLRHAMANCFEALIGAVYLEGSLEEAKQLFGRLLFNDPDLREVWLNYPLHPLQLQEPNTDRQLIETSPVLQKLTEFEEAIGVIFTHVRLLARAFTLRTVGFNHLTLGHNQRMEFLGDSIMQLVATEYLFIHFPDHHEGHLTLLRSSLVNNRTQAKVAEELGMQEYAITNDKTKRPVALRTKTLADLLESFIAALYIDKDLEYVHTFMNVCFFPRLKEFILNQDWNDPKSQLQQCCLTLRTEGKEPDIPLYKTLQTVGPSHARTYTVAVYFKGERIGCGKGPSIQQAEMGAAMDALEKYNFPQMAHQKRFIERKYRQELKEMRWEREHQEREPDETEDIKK

[3] = molecular target: T3, ΔN-Drosha (Drosha lacking the NTR; aa 396-1374) (human) (UniProt Q9NRR4)
T3 sequence: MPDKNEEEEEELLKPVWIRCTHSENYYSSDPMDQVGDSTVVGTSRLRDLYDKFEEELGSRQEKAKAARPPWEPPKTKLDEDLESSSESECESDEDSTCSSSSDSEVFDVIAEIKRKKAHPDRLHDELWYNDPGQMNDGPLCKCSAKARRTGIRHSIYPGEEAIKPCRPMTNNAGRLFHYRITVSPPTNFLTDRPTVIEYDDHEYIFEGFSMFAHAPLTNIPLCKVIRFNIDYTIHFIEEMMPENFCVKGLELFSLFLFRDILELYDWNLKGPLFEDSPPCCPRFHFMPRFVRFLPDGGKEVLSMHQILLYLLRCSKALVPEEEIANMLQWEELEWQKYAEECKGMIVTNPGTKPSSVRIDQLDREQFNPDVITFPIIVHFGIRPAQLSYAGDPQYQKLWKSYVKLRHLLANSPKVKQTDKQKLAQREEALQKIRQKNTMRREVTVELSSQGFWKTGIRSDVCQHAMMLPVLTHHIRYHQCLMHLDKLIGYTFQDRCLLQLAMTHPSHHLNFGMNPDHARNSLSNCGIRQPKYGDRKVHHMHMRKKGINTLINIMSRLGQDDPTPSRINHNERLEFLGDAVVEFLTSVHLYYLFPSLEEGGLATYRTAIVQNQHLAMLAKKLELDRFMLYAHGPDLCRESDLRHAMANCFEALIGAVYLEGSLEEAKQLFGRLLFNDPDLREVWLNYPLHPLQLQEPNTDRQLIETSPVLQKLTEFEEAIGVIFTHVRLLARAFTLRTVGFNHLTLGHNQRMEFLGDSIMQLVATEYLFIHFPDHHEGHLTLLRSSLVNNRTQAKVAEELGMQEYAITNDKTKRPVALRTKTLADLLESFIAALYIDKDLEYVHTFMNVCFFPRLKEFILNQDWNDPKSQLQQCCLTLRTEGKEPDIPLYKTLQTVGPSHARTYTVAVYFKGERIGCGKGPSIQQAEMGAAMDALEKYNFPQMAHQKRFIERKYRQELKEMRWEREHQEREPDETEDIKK

Argonaute 2 (Ago2) (from UniProt Q9UKV8 1-859)
binding [1]: binds
binding [2]: no binding
binding [3]: no binding
